Test results reported in publication PMC7466379.
The exact form of at least one protein or probe is not confirmed. For part of these data: Whether high values mean tight binding is not given here for every scale.

By UniProt entry, the sequences of proteins in these tests, tags left out. Residues count along the entry.
UniProt P01579, 24-161: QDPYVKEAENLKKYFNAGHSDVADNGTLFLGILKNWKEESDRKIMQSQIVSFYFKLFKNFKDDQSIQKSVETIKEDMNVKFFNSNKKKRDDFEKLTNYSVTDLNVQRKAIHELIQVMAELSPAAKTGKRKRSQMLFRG
UniProt P60568, 21-153: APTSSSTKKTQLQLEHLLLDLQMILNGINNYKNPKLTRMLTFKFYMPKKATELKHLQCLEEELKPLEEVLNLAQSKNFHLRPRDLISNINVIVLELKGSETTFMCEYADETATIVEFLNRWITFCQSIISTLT

Tests used:
IFN-gamma [1] = biological target: IFN-gamma (UniProt P01579); test: graphene field-effect transistor; conditions: artificial tears, Tween 80 passivated; 5'-NH2; Artificial tears (Alcon) on aptamer-modified graphene FET, 0.05% Tween 80 passivation; protein up to 500 nM; salt and temperature not stated; commercial protein; single-stranded DNA
IFN-gamma [2] = biological target: IFN-gamma (UniProt P01579); test: graphene field-effect transistor, time-resolved; conditions: artificial tears, same concentration as TNF-alpha; 5'-NH2; Artificial tears (Alcon) on aptamer-modified graphene FET, 0.05% Tween 80 passivation; protein up to 500 nM; salt and temperature not stated; commercial protein; single-stranded DNA
[3] = biological target: interleukin-002 (IL-002) (human) (UniProt P60568); test: graphene field-effect transistor, time-resolved; conditions: artificial tears, same concentration as TNF-alpha; 5'-NH2; Artificial tears (Alcon) on aptamer-modified graphene FET, 0.05% Tween 80 passivation; protein up to 500 nM; salt and temperature not stated; commercial protein; single-stranded DNA

Which Kd (IFN-gamma [1]) does the source give for “GGGGTTGTTTGTGTTGGGTGTTGTGT [IFN-gamma aptamer]” here?
Its Kd is 7.36 nM.

Which binding signal (% of TNF-alpha signal) (IFN-gamma [2]) does the source give for “TGGTGGATGGCGCAGTCGGCGACAA [TNF-alpha aptamer]” here?
Its binding signal (% of TNF-alpha signal) is less than 15.

What about the binding signal (% of TNF-alpha signal) [3] of the same sequence?
The binding signal (% of TNF-alpha signal) was less than 15.
